Source: publication PMC7042299
No constants are given. Whether binding was seen depends on the method and setting. In cells and extracts the contact can be indirect. Some entries that bind do so weakly or less than the wild type. Sequences can lack the tags named with a protein.

The chains behind the UniProt entries cited, without tags or fusion partners.
UniProt Q9HAU5: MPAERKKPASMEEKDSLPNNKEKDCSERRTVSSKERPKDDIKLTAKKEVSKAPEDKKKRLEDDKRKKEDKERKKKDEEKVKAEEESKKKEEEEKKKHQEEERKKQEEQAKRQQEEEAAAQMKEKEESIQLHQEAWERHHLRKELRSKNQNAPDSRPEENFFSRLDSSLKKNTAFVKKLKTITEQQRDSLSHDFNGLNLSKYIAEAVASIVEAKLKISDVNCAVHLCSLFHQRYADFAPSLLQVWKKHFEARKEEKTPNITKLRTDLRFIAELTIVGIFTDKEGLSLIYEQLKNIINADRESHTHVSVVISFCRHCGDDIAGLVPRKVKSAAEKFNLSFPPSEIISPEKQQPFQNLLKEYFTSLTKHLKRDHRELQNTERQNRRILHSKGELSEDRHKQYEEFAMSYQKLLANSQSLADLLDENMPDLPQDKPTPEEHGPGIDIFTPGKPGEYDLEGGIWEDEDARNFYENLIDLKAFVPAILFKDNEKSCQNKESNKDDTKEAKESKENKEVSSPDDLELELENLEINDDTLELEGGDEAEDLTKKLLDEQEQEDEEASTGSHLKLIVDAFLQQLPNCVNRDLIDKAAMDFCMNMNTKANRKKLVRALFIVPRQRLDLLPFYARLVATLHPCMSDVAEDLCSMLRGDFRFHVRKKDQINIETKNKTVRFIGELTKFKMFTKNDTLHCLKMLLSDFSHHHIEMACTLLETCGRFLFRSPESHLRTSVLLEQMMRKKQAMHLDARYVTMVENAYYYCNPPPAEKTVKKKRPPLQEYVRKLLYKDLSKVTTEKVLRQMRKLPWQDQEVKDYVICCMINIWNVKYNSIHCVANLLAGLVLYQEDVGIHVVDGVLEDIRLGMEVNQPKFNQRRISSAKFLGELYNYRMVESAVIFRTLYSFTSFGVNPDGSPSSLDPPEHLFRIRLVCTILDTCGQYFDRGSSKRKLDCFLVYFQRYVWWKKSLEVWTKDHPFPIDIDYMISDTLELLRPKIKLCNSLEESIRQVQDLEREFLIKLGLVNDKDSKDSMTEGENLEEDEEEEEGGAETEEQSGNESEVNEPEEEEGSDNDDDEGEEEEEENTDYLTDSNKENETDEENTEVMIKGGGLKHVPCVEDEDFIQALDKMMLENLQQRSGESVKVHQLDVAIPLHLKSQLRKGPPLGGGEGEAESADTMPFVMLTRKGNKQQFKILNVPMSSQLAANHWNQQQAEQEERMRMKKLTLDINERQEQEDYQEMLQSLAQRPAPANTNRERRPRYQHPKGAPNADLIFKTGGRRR

T1: 3XFLAG-UPF1 (pcDNA3-3XFLAG-UPF1) (UniProt Q92900)
T1 sequence: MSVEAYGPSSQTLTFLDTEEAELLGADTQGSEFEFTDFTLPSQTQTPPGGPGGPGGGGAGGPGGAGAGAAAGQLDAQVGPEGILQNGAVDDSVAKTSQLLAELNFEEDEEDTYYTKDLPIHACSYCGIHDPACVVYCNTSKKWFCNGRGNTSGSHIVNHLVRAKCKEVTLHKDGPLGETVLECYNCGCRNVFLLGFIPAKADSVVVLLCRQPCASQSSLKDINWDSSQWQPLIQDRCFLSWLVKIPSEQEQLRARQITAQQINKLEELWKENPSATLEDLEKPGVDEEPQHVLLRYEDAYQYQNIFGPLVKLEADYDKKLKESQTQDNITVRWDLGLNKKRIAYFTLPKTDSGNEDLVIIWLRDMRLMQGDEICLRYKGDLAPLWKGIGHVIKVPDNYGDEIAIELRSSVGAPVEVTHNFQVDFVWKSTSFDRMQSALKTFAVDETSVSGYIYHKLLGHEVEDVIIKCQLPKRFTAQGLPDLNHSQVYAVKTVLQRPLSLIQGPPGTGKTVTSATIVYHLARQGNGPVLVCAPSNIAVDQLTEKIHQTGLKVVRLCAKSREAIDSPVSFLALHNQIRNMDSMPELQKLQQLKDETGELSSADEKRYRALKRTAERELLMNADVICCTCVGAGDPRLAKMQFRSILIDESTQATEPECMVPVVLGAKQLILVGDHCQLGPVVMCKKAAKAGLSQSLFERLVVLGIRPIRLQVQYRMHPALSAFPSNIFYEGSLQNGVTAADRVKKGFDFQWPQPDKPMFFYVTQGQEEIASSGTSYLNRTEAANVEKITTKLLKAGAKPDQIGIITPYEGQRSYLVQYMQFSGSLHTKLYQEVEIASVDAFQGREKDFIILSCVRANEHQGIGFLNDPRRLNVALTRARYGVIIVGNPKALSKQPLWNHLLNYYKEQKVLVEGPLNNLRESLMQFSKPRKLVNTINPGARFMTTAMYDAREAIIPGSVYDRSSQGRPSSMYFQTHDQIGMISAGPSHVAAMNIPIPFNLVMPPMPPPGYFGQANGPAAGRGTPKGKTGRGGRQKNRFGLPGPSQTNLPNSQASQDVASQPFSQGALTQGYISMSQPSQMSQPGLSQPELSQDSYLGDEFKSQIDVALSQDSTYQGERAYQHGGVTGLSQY


Target: T1, 3XFLAG-UPF1 (pcDNA3-3XFLAG-UPF1)
Experiment: co-IP; HEK293T cells depleted of DHX34 by siRNA, transfected with 3XFLAG-UPF1 and siRNA-resistant wild-type or variant T7-DHX34; immunoprecipitation on Anti-FLAG M2 Affinity Gel, blots with anti-UPF2 and anti-UPF3B

| binding | Molecule |
| --- | --- |
| binds | UPF2 (from UniProt Q9HAU5 1-1272) |
| binds | UPF3B (protein, UniProt Q9BZI7 1-483) MKEEKEHRPKEKRVTLLTPAGATGSGGGTSGDSSKGEDKQDRNKEKKEALSKVVIRRLPPTLTKEQLQEHLQPMPEHDYFEFFSNDTSLYPHMYARAYINFKNQEDIILFRDRFDGYVFLDNKGQEYPAIVEFAPFQKAAKKKTKKRDTKVGTIDDDPEYRKFLESYATDNEKMTSTPETLLEEIEAKNRELIAKKTTPLLSFLKNKQRMREEKREERRRREIERKRQREEERRKWKEEEKRKRKDIEKLKKIDRIPERDKLKDEPKIKVHRFLLQAVNQKNLLKKPEKGDEKELDKREKAKKLDKENLSDERASGQSCTLPKRSDSELKDEKPKRPEDESGRDYREREREYERDQERILRERERLKRQEEERRRQKERYEKEKTFKRKEEEMKKEKDTLRDKGKKAESTESIGSSEKTEKKEEVVKRDRIRNKDRPAMQLYQPGARSRNRLCPPDDSTKSGDSAAERKQESGISHRKEGGEE |
